Test results published in patent US6054115A, “Hydroxymethyl phosphine compounds for use as diagnostic and therapeutic pharmaceuticals and method of making same” (priority 1998, dated 2000).

Experiment: Elution of THP and 99mTc-THP through amine based (aminopropyl Sep-Pak) column

Compound: OCP(CO)CO [THP, Tris(Hydroxymethyl)Phosphine]
- Elution (amino propyl SepPak column, 500 mg sorbent): < 2%
- uncomplexed THP attached to the column (aminopropyl Sep-Pak): > 99%
- Blank (elution) (silica gel (60-200 mesh) column, 500 mg): > 99%
